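A panel of P. falciparum strains inside erythrocytes is exposed to compounds for three days, then a DNA-binding dye reports the amount of parasite DNA.
Each compound was titrated across a series from about 0.000037 to 29 µM.
The number is the fitted AC50, the concentration giving a half-maximal change in signal; a lower value means higher potency, whether the curve shows a decrease or an increase.
Calls follow the curve class and fit quality: every row here is inconclusive, covering signal-raising curves and weak, poorly fitted, partial or highest-dose-only inhibition curves.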

Values are in µM.
Every entry below has the call inconclusive.
Only part of the assay is shown, chiefly results filed as inconclusive.
A potency from a partial, single-point or poor curve is only a rough figure.

* COC(=O)C1=C(C)NC(C)=C(C(=O)OCC(C)C)C1c1ccccc1[N+](=O)[O-] (stereo not shown) [DFO2036] | Potency 15.85 µM (inhibitor, single point)
* COC(=O)C1=C(C)NC(C)=C(C(=O)OCC(C)C)C1c1ccccc1[N+](=O)[O-] (stereo not shown) [FAB9] | Potency 11.22 µM (inhibitor, single point)
* COC(=O)C1=C(C)NC(C)=C(C(=O)OCC(C)C)C1c1ccccc1[N+](=O)[O-] (stereo not shown) [P94_40] | Potency 15.85 µM (inhibitor, single point)
* COC(=O)C1=C(C)NC(C)=C(C(=O)OCC(C)C)C1c1ccccc1[N+](=O)[O-] (stereo not shown) [DIV17] | Potency 15.1 µM (inhibitor, single point)
* COC(=O)C1=C(C)NC(C)=C(C(=O)OCC(C)C)C1c1ccccc1[N+](=O)[O-] (stereo not shown) [CP237] | Potency 12.59 µM (inhibitor, single point)
* COC(=O)C1=C(C)NC(C)=C(C(=O)OCC(C)C)C1c1ccccc1[N+](=O)[O-] (stereo not shown) [CP192] | Potency 19.01 µM (inhibitor, single point)
* COC(=O)C1=C(C)NC(C)=C(C(=O)OCC(C)C)C1c1ccccc1[N+](=O)[O-] (stereo not shown) [CP215] | Potency 12 µM (inhibitor, single point)
* COC(=O)C1=C(C)NC(C)=C(C(=O)OCC(C)C)C1c1ccccc1[N+](=O)[O-] (stereo not shown) [CP194] | Potency 16.94 µM (inhibitor, single point)
* COC(=O)C1=C(C)NC(C)=C(C(=O)OCC(C)C)C1c1ccccc1[N+](=O)[O-] (stereo not shown) [CP260] | Potency 12.59 µM (inhibitor, single point)
* COC(=O)C1=C(C)NC(C)=C(C(=O)OCC(C)C)C1c1ccccc1[N+](=O)[O-] (stereo not shown) [CP211] | Potency 19.01 µM (inhibitor, single point)
* COC(=O)C1=C(C)NC(C)=C(C(=O)OCC(C)C)C1c1ccccc1[N+](=O)[O-] (stereo not shown) [TAB113] | Potency 10 µM (inhibitor, single point)
* COC(=O)C1=C(C)NC(C)=C(C(=O)OCC(C)C)C1c1ccccc1[N+](=O)[O-] (stereo not shown) [CP203] | Potency 19.01 µM (inhibitor, single point)
* COC(=O)C1=C(C)NC(C)=C(C(=O)OCC(C)C)C1c1ccccc1[N+](=O)[O-] (stereo not shown) [PC49] | Potency 17.78 µM (inhibitor, single point)
* COC(=O)C1=C(C)NC(C)=C(C(=O)OCC(C)C)C1c1ccccc1[N+](=O)[O-] (stereo not shown) [PAD] | Potency 15.85 µM (inhibitor, single point)
* COC(=O)C1=C(C)NC(C)=C(C(=O)OCC(C)C)C1c1ccccc1[N+](=O)[O-] (stereo not shown) [CP201] | Potency 19.01 µM (inhibitor, single point)
* COC(=O)C1=C(C)NC(C)=C(C(=O)OCC(C)C)C1c1ccccc1[N+](=O)[O-] (stereo not shown) [PC26] | Potency 15.1 µM (inhibitor, single point)
* COC(=O)C1=C(C)NC(C)=C(C(=O)OCC(C)C)C1c1ccccc1[N+](=O)[O-] (stereo not shown) [CP250] | Potency 17.78 µM (inhibitor, single point)
* COC(=O)C1=C(C)NC(C)=C(C(=O)OCC(C)C)C1c1ccccc1[N+](=O)[O-] (stereo not shown) [ATS189] | Potency 11.22 µM (inhibitor, single point)
* COC(=O)C1=C(C)NC(C)=C(C(=O)OCC(C)C)C1c1ccccc1[N+](=O)[O-] (stereo not shown) [3D7] | Potency 10 µM (inhibitor, single point)
* COC(=O)C1=C(C)NC(C)=C(C(=O)OCC(C)C)C1c1ccccc1[N+](=O)[O-] (stereo not shown) [CP247] | Potency 11.22 µM (inhibitor, single point)
* COC(=O)C1=C(C)NC(C)=C(C(=O)OCC(C)C)C1c1ccccc1[N+](=O)[O-] (stereo not shown) [CP335] | Potency 16.94 µM (inhibitor, single point)
* COC(=O)C1=C(C)NC(C)=C(C(=O)OCC(C)C)C1c1ccccc1[N+](=O)[O-] (stereo not shown) [N140] | Potency 10 µM (inhibitor, single point)
* COC(=O)C1=C(C)NC(C)=C(C(=O)OCC(C)C)C1c1ccccc1[N+](=O)[O-] (stereo not shown) [AA1029] | Potency 11.22 µM (inhibitor, single point)
* COC(=O)C1=C(C)NC(C)=C(C(=O)OCC(C)C)C1c1ccccc1[N+](=O)[O-] (stereo not shown) [ATS95] | Potency 17.78 µM (inhibitor, single point)
* COC(=O)C1=C(C)NC(C)=C(C(=O)OCC(C)C)C1c1ccccc1[N+](=O)[O-] (stereo not shown) [PC15] | Potency 11.22 µM (inhibitor, single point)
* COC(=O)C1=C(C)NC(C)=C(C(=O)OCC(C)C)C1c1ccccc1[N+](=O)[O-] (stereo not shown) [CP217] | Potency 10 µM (inhibitor, single point)
* COC(=O)C1=C(C)NC(C)=C(C(=O)OCC(C)C)C1c1ccccc1[N+](=O)[O-] (stereo not shown) [CP266] | Potency 19.01 µM (inhibitor, single point)
* COC(=O)C1=C(C)NC(C)=C(C(=O)OCC(C)C)C1c1ccccc1[N+](=O)[O-] (stereo not shown) [CP269] | Potency 13.46 µM (inhibitor, single point)

The results are deposited in PubChem (AID504749; NCATS, 2011).